Measurements reported in PubChem BioAssay AID686943 (Drosophila RNAi Screening Center, 2013)
In all, the deposit lists about 23,000 reagents; shown is an unselected part of those with a known target gene and a result. 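Extra replicates exist only for a retested subset of genes; insulin dose and duration not given; both raised and lowered dpERK matter.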 A plus sign joins genes that one reagent is predicted to hit. The record does not give: the amount of reagent, the time to read-out.

Purpose: 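Search across the genome for regulators of signalling from receptor tyrosine kinase to ERK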 (primary screen)
Cell system: Drosophila S2R+ haemocyte-like cells expressing YFP-tagged ERK (Rolled)
Reagents: long dsRNA against Drosophila genes
Challenge: insulin stimulation versus unstimulated cells; dose and duration not given
Measurement: 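Antibody staining for doubly phosphorylated ERK divided by ERK-YFP signal, as plate z-scores, in insulin-treated and untreated cells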
Reading the numbers: replicate 1, z-score of dpERK with insulin and replicate 2, z-score of dpERK with insulin: higher = more active ERK per ERK-YFP after insulin; replicate 1, z-score of dpERK under basal conditions: higher = more basal active ERK per ERK-YFP; replicate 1, z-score of ERK-YFP with insulin: higher = more YFP-tagged ERK signal

Gene	DRSC id	replicate 1, z-score of dpERK with insulin	replicate 2, z-score of dpERK with insulin	replicate 1, z-score of dpERK under basal conditions	replicate 1, z-score of ERK-YFP with insulin
lncRNA:CR30009	DRSC22952	-0.35	-0.19	-0.27	-1.34
alphaTub84D	DRSC12623	-1.24	-1.38	2.01	-2.44
CG6791	DRSC16118	-0.41	0.03	-0.29	-0.7
Nulp1	DRSC09677	0.09	-0.89	-0.67	0.29
Vha16-4	DRSC07321	0.4	0.03	0.73	-0.05
Atg9	DRSC06848	-0.74	-0.51	-0.07	1.42
m-cup	DRSC14430	0.2	0.92	0.02	0.19
wge	DRSC15246	-0.33	-0.22	-0.39	0.07
wge	DRSC15672	0.15	-0.3	-0.38	0.54
Cpr65Ec	DRSC11025	-0.84	-0.15	-0.5	0.52
CG12081	DRSC17802	0.12	0.56	-0.22	-0.27
ATPsyndelta	DRSC18248	-0.02	-0.26	0.4	-1.59
trv	DRSC13846	-0.13	-0.2	-0.59	0
trv	DRSC14559	1.42	-0.19	-1.04	0.09
trv	DRSC14560	1.63	-0.12	0.46	-0.05
trv	DRSC14561	1	0.01	-0.35	0.02
CG42583	DRSC22937	-0.05	-0.16	-0.22	-0.12
Pvr	DRSC03080	-9.5	-7.2	-2.54	-3.39
Ziz	DRSC02506	0.03	0.43	-0.75	-0.25
Ziz	DRSC02976	-0.15	0.1	-0.21	-0.37
CG13426	DRSC06388	0.22	0.13	-1.11	0.07
pyd3	DRSC15459	1.23	-0.15	-1.17	-0.09
pyd3	DRSC21640	0.15	-0.4	0.55	-0.78
Ir67a	DRSC09897	0.29	0.51	0.6	0.4
CG9757	DRSC16557	1.72	0.49	-1.3	-0.49
CG9757	DRSC21707	-1.01	-0.7	0.24	-0.62
CG10587	DRSC11627	-0.07	0.06	-0.25	-0.46
kl-3 (retired record)	DRSC20730	-0.23	-0.78	-0.44	-1.05
kl-3 (retired record)	DRSC20891	-0.06	-0.31	-1.59	0.4
kl-3 (retired record)	DRSC20934	-0.11	1.09	-0.09	-0.06
CG31806	DRSC02787	1.34	1.78	0.22	-2.38
CG5510	DRSC15823	-0.31	0.01	1.31	0.07
CG6503	DRSC16056	0.41	-1.85	1.23	0.28
slp1	DRSC00835	0.6	1.32	-0.25	0.02
CG7115	DRSC02000	0.18	0.33	1.06	0.11
CG18266	DRSC02659	0.51	-0.28	-0.46	1.66
Taf9	DRSC20326	2.14	1.54	-2.8	0.23
Drat	DRSC06600	-1.16	-1.4	0.36	2.09
CG10598	DRSC19358	-0.86	-0.83	0.97	1.01
CG5835	DRSC15886	0.09	0.29	0.72	-0.23

The list goes on (5 carried over from the part before).
Gene	DRSC id	replicate 1, z-score of dpERK with insulin	replicate 2, z-score of dpERK with insulin	replicate 1, z-score of dpERK under basal conditions	replicate 1, z-score of ERK-YFP with insulin
CG18266	DRSC02659	0.51	-0.28	-0.46	1.66
Taf9	DRSC20326	2.14	1.54	-2.8	0.23
Drat	DRSC06600	-1.16	-1.4	0.36	2.09
CG10598	DRSC19358	-0.86	-0.83	0.97	1.01
CG5835	DRSC15886	0.09	0.29	0.72	-0.23
Tsr1	DRSC11821	0.22	-1.13	0.11	-0.78
CG15213	DRSC10213	-1.4	-0.94		1
CG30156	DRSC04959	-0.18	-0.01	-1.32	-0.59
Lcp65Ag3 + Lcp65Ag2 + Lcp65Ag1	DRSC11214	-0.22	0.23	-0.08	0.81
Lcp65Ag3 + Lcp65Ag2 + Lcp65Ag1	DRSC11215	0.59	0.03	-0.61	0.3
CG31910 + snoRNA:Me28S-G2743 (retired record)	DRSC00946	-0.14	-0.94	0.05	1
CG5693	DRSC02878	0.07	0.53	0	-0.21
CG30222	DRSC04125	-0.47	-1.62	0.9	-0.67
CG30222	DRSC04262	-0.3	0.09	0.13	0.91
CG15628	DRSC00256	-2.57	-0.37	-2.67	-1.8
CG15628	DRSC00463	0.4	-0.24	0.33	0.5
Prp3	DRSC10912	2.98	2.38	-1.48	-0.21
AcCoAS	DRSC11477	0.05	1.02	0.65	0.27
AcCoAS	DRSC11603	-1.11	-0.2	-0.15	0.21
AcCoAS	DRSC22850	0.68	0.27	-0.52	-0.43
Lkr	DRSC09754	-0.33	-0.66	-0.26	0.79
Cdc27	DRSC11112	-3.25	-4.9	2.67	-4.57
CLS	DRSC15642	0.14	-0.45	0.31	0.38
CG33177	DRSC19949	0.9	0.42	0.49	-0.33
CG13601	DRSC14604	-0.02	0.2	0.91	1.84
CG10898	DRSC14279	0	-0.03	-0.21	-0.26
Usp30	DRSC18265	-0.6	-0.26	-0.93	1.37
CG3587	DRSC18541	0.14	1.03	-0.42	-0.6
CG3587	DRSC21966	-0.3	0.39	0.1	-0.26
mino	DRSC14132	1.69	0.25	-0.46	0.25
4E-T	DRSC17201	-1	-0.8	-1.63	0.3
4E-T	DRSC17208	-0.57	-0.36	0.24	0.69
CG3176 + CR18166 + CG32817	DRSC17271	-0.99	-0.69	-0.76	0.59
CG3176 + CR18166 + CG32817	DRSC17282	-0.39	-0.23	-0.76	0.34
CG3176 + CR18166 + CG32817	DRSC18288	-1.95	-2.2	0.64	1.01
eRF3	DRSC03322	1.04	0.72	1.16	0.12
CG15099	DRSC06528	0.27	0.06	0.95	1.25
brk	DRSC18745	-1.55	-2.39	-1.12	2.71
